Results published in PubChem BioAssay AID330 (DTP/NCI, 2004).
The list shows only some results of the screen, not a fair sample: it gathers tests that were run many times, whatever their T/C, doses with no T/C, and many T/C values between a quarter and a half above the control. Further doses and runs are listed elsewhere. T/C gives the treated animals as a percentage of the vehicle group. Some doses have a count of surviving animals in place of a T/C: the source holds a T/C of zero for them, seemingly a mark for toxic or unscored doses. Some survivor counts are full or nearly so, which does not show that the dose was tolerated: the source hardly ever lists a survival T/C far under the control, and the zero likely stands for such cases as well. Survivors were counted at the toxicity check, usually on the fifth day, unless a day is given; later deaths do not show. Schedule codes are those of the source, read here as Q, the interval in days (D) or hours (H), X, the number of doses. Some entries were tested several times; the results are listed from low to high. For survival time, the PubChem record calls one and a half times the control and up active, and a quarter to a half above the control has no call in these data; cut-offs in other NCI protocols can differ. Some T/C values are followed by the survivors on the day toxicity was checked, most often the fifth; without a count, all were alive then.

Test system: P388 leukemia ip, CD2F1 mice, survival T/C
Assay: NCI In Vivo Anticancer Drug Screen. Data for tumor model P388 Leukemia (intraperitoneal) in CD2F1 (CDF1) mice
Conditions: T/C endpoint: median survival time, higher T/C = longer survival
[1] = dose: 400.0 mg/kg/injection, schedule: Q04DX003 (ip), vehicle: Klucel (hydroxypropylcellulose) (HPC)
[2] = dose: 50.0 mg/kg/injection, schedule: Q01DX009 (ip), vehicle: Klucel (hydroxypropylcellulose) (HPC)
[3] = dose: 100.0 mg/kg/injection, schedule: Q01DX009 (ip), vehicle: Klucel (hydroxypropylcellulose) (HPC)
[4] = dose: 200.0 mg/kg/injection, schedule: Q01DX009 (ip), vehicle: Klucel (hydroxypropylcellulose) (HPC)
[5] = dose: 200.0 mg/kg/injection, schedule: Q01DX005 (ip), vehicle: saline with Tween-80
[6] = dose: 200.0 mg/kg/injection, schedule: Q01DX005 (ip), vehicle: saline
[7] = dose: 240.0 mg/kg/injection, schedule: Q01DX005 (ip), vehicle: saline with Tween-80
[8] = dose: 200.0 mg/kg/injection, schedule: Q01DX009 (ip), vehicle: saline with Tween-80
[9] = dose: 200.0 mg/kg/injection, schedule: Q01DX001 (ip), vehicle: Klucel (hydroxypropylcellulose) (HPC)

SMILES: Cc1ccc(S(=O)(=O)OC2C(O)CC(=O)C(OC(=O)c3ccccc3)C2OC(=O)c2ccccc2)cc1 (centres undefined)
- survivor count (dose: 200.0 mg/kg/injection, schedule: Q01DX001 (ip), vehicle: saline with Tween-80): 6 of 6

SMILES: Oc1c(Cl)cc(Cl)cc1C=Nc1ccc2c(ccc3c4ccccc4ccc23)c1
- survivor count (dose: 200.0 mg/kg/injection, schedule: Q04DX003 (ip), vehicle: Klucel (hydroxypropylcellulose) (HPC)): 0 of 5
- survivor count [1]: 0 of 5

SMILES: CCCCCCC([Se]C)C(O)(CCC)CCC (centres undefined)
- survivor count (dose: 100.0 mg/kg/injection, schedule: Q04DX003 (ip), vehicle: saline with Tween-80): 5 of 6
- survivor count (dose: 200.0 mg/kg/injection, schedule: Q04DX003 (ip), vehicle: saline with Tween-80): 0 of 6
- survivor count (dose: 400.0 mg/kg/injection, schedule: Q04DX003 (ip), vehicle: saline with Tween-80): 0 of 6

SMILES: O=P(c1ccccc1)(c1ccccc1)c1ccccc1.O=P(c1ccccc1)(c1ccccc1)c1ccccc1.O=S(=O)(O)O.[Ni]
- survivor count [2]: 6 of 6
- survivor count [3]: 6 of 6
- survivor count [4]: 0 of 6

SMILES: COC1=C(OC)C(=O)C(SCCCCCCC2CCCCC2)=C(C)C1=O
- survivor count (dose: 240.0 mg/kg/injection, schedule: Q01DX005 (ip), vehicle: saline + Tween-80 + alcohol): 2 of 6

SMILES: O=NN(CCCl)C(=O)Oc1ccc(F)cc1
- T/C (dose: 12.5 mg/kg/injection, schedule: Q01DX001 (ip), vehicle: saline with Tween-80): 125 % of control
- T/C (dose: 25.0 mg/kg/injection, schedule: Q01DX001 (ip), vehicle: saline with Tween-80): 125 % of control

SMILES: N#CCS(=O)(=O)OCCCl
- T/C (dose: 11.0 mg/kg/injection, schedule: Q01DX005 (ip), vehicle: saline with Tween-80): 126 % of control
- T/C (dose: 16.5 mg/kg/injection, schedule: Q01DX005 (ip), vehicle: saline with Tween-80): 127 % of control
- T/C (dose: 25.0 mg/kg/injection, schedule: Q01DX005 (ip), vehicle: saline with Tween-80): 142 and 144 % of control
- survivor count (dose: 50.0 mg/kg/injection, schedule: Q01DX005 (ip), vehicle: saline with Tween-80): 1 of 6 and 3 of 5
- survivor count (dose: 100.0 mg/kg/injection, schedule: Q01DX005 (ip), vehicle: saline with Tween-80): 0 of 6
- survivor count [5]: 0 of 6

SMILES: O=Cc1ccc2c(c1)C(O)NC(=O)O2 (centres undefined)
- survivor count [5]: 0 of 6

SMILES: CCN(CC)Cc1c(O)ccc2c3c(c(=O)oc12)CCCC3
- survivor count (dose: 64.0 mg/kg/injection, schedule: Q01DX009 (ip), vehicle: Klucel (hydroxypropylcellulose) (HPC)): 2 of 5

SMILES: NC(=S)N/N=C\c1ncccc1OCc1cccc(N)c1
- T/C (dose: 12.5 mg/kg/injection, schedule: Q01DX009 (ip), vehicle: other): 130 % of control
- T/C (dose: 25.0 mg/kg/injection, schedule: Q01DX009 (ip), vehicle: distilled water + Tween-80): 125 % of control [5 of 6 alive]
- T/C (dose: 50.0 mg/kg/injection, schedule: Q01DX009 (ip), vehicle: distilled water + Tween-80): 131 % of control
- T/C (dose: 50.0 mg/kg/injection, schedule: Q01DX009 (ip), vehicle: other): 127 and 141 % of control
- T/C (dose: 100.0 mg/kg/injection, schedule: Q01DX009 (ip), vehicle: distilled water + Tween-80): 127 % of control
- T/C (dose: 100.0 mg/kg/injection, schedule: Q01DX009 (ip), vehicle: other): 134 and 139 % of control
- survivor count (dose: 200.0 mg/kg/injection, schedule: Q01DX009 (ip), vehicle: other): 5 of 6
- survivor count (dose: 400.0 mg/kg/injection, schedule: Q01DX009 (ip), vehicle: other): 0 of 6 and 2 of 6

SMILES: CCN(CC)CCOCCOC1CC2CCC1(C)C2(C)C (centres undefined)
- survivor count [6]: 0 of 6

SMILES: CCOC(=O)c1c(C)[nH]c(-c2ccccc2)c1NS(=O)(=O)c1ccc(N)cc1
- survivor count [7]: 6 of 6

SMILES: Nc1nc(Nc2ccccc2)nc(-c2ccccc2)n1
- survivor count [5]: 5 of 6

SMILES: CN(C)CCN1CC2Cc3ccccc3C1c1ccccc12 (centres undefined)
- survivor count [1]: 0 of 6

SMILES: c1ccc(N=C2c3ccccc3NC2(c2ccccc2)c2ccccc2)cc1
- survivor count [8]: 6 of 6

SMILES: CC(C)Oc1ccc(C(=O)NS(=O)(=O)c2ccc(N=CC3C(=O)N(c4ccccc4)N(c4ccccc4)C3=O)cc2)cc1
- survivor count [2]: 6 of 6

SMILES: CC(=O)c1cc2cc3c4c(c2oc1=O)CCCN4CCC3
- survivor count (dose: 240.0 mg/kg/injection, schedule: Q01DX005 (ip), vehicle: Klucel (hydroxypropylcellulose) (HPC)): 3 of 6

SMILES: CC1(C)CC(OP(=S)(N2CC2)N2CC2)CC(C)(C)N1O
- T/C [9]: 142 % of control

SMILES: CC1=NCCCN(CCN(C)C)CCCN=C(C)C2CCCC1[N-]2.[Ni+2].[O-][Cl+3]([O-])([O-])O
- survivor count (dose: 50.0 mg/kg/injection, schedule: Q01DX001 (ip), vehicle: saline): 2 of 6
- survivor count (dose: 100.0 mg/kg/injection, schedule: Q01DX001 (ip), vehicle: saline): 0 of 6 and 1 of 6
- survivor count (dose: 200.0 mg/kg/injection, schedule: Q01DX001 (ip), vehicle: saline): 1 of 6
- survivor count (dose: 400.0 mg/kg/injection, schedule: Q01DX001 (ip), vehicle: saline): 0 of 6

SMILES: C[n+]1cccc(C(=O)OCC(C)(C)N(Cl)Cl)c1
- survivor count (dose: 100.0 mg/kg/injection, schedule: Q01DX009 (ip), vehicle: saline): 5 of 6
- survivor count (dose: 200.0 mg/kg/injection, schedule: Q01DX009 (ip), vehicle: saline): 0 of 6

SMILES: CCOC(=O)C1=C(c2ccccc2)Nc2ccccc2[S+]1C (centres undefined)
- survivor count (dose: 120.0 mg/kg/injection, schedule: Q01DX005 (ip), vehicle: saline): 0 of 6
- survivor count (dose: 240.0 mg/kg/injection, schedule: Q01DX005 (ip), vehicle: saline): 0 of 6

SMILES: CCC1(O)C(=O)OCc2c1cc1n(c2=O)Cc2cc3ccccc3nc2-1 (centres undefined)
- T/C (dose: 1.0 mg/kg/injection, schedule: Q04DX003 (ip), vehicle: other, evaluated on day 40): 138 % of control
- T/C (dose: 1.0 mg/kg/injection, schedule: Q04DX003 (ip), vehicle: other, evaluated on day 45): 140 % of control
- survivor count (dose: 16.0 mg/kg/injection, schedule: Q04DX003 (ip), vehicle: other): 2 of 6

SMILES: CC(=O)OC1CC(C)OC(OC2CCC3(C=O)C4C(O)C(=O)[C@]5(C)C(c6ccc(=O)oc6)CC[C@]5(O)C4CC[C@]3(O)C2)C1OC(C)=O (some centres undefined)
- survivor count (dose: 5.68 mg/kg/injection, schedule: Q01DX009 (ip), vehicle: distilled water + Tween-80 + alcohol): 3 of 4

SMILES: COc1cc(OC)cc(N2C(N)=NC(N)=NC2(C)C)c1
- survivor count (dose: 100.0 mg/kg/injection, schedule: Q01DX005 (ip), vehicle: Klucel (hydroxypropylcellulose) (HPC)): 0 of 6
- survivor count (dose: 200.0 mg/kg/injection, schedule: Q01DX005 (ip), vehicle: Klucel (hydroxypropylcellulose) (HPC)): 0 of 6

SMILES: O=NNc1ccc(Oc2ccccc2)cn1
- T/C (dose: 1.56 mg/kg/injection, schedule: Q01DX009 (ip), vehicle: saline): 127 % of control
- T/C (dose: 3.12 mg/kg/injection, schedule: Q01DX009 (ip), vehicle: saline): 134 and 145 % of control
- T/C (dose: 6.25 mg/kg/injection, schedule: Q01DX009 (ip), vehicle: saline): 148 % of control
- survivor count (dose: 25.0 mg/kg/injection, schedule: Q01DX009 (ip), vehicle: saline): 6 of 6
- survivor count (dose: 50.0 mg/kg/injection, schedule: Q01DX009 (ip), vehicle: saline): 0 of 6

SMILES: CN(C)CCNC1c2ccccc2CCc2ccccc21
- survivor count [6]: 0 of 6

SMILES: CCOC(=O)C1C(=O)[C@H](C(=O)OC)C2CCCC3CCCC1N32 (some centres undefined)
- survivor count [7]: 5 of 6

SMILES: COc1ccc2sc3c(C)ccc(NCCN(C)C)c3c(=O)c2c1
- T/C (dose: 100.0 mg/kg/injection, schedule: Q01DX009 (ip), vehicle: saline with Tween-80): 135 % of control
- survivor count [8]: 6 of 6

SMILES: CCCN1C[C@H](CSC)C[C@@H]2c3cccc4[nH]cc(c34)C[C@H]21
- survivor count [2]: 6 of 6
- survivor count [3]: 3 of 6
- survivor count [4]: 6 of 6

SMILES: O=[N+]([O-])c1cccc(N/N=C\c2cccc3c(/C=N/Nc4cccc([N+](=O)[O-])c4)c(Cl)n(-c4ccccc4)c23)c1
- survivor count [9]: 6 of 6
- survivor count (dose: 400.0 mg/kg/injection, schedule: Q01DX001 (ip), vehicle: Klucel (hydroxypropylcellulose) (HPC)): 6 of 6
